The experiment addresses N-terminal Flag tagged human FOXO1A (human) (UniProt Q12778). Kind of experiment: co-IP; HeLa cells co-transfected with HoxA11-V5/His and Flag-FOXO1A (or empty pcDNA3.1(+)); whole cell lysate (420 mM NaCl, 1% Triton X-100) on M2 anti-FLAG agarose beads overnight at 4°C; without or with 50 U DNase and 2.5 µg RNase for 60 min at room temperature; washed with 10 mM Hepes, 150 mM NaCl, 0.5% Triton X-100; Western blot with anti-V5-HRP, re-probed with anti-Flag-HRP. (In general: Immunoblotting shows a protein as a band on a membrane.)

Sequences of proteins named here, by UniProt entry; tags and fusion partners are left off.
UniProt Q12778: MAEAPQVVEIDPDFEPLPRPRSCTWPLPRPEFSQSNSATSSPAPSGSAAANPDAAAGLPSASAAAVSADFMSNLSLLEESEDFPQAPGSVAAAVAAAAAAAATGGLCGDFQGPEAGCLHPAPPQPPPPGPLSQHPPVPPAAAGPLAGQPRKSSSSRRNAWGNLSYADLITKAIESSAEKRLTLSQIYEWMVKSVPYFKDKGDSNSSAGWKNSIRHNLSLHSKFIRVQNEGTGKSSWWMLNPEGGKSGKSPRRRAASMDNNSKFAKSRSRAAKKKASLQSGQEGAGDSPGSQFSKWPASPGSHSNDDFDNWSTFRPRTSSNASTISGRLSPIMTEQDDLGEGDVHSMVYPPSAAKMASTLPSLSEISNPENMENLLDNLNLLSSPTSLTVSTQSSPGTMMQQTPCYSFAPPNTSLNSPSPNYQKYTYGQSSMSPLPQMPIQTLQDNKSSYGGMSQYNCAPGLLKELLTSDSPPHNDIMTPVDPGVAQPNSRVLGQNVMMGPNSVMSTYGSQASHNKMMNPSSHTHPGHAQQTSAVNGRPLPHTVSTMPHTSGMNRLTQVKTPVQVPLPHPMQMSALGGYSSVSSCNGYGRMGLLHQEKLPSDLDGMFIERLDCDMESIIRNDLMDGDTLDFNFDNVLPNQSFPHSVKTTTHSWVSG
UniProt P31270: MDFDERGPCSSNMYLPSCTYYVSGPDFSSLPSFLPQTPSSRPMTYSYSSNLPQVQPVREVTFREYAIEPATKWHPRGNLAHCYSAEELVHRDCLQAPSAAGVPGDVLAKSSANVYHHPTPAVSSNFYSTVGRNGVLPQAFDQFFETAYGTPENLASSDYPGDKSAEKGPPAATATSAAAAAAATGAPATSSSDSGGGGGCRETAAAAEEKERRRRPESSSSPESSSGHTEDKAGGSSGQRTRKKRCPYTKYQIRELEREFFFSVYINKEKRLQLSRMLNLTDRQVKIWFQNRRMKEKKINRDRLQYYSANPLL

These are yes or no findings as the source states them, for the method shown. In cells and extracts the contact can be indirect. Some entries that bind do so weakly or less than the wild type.

For the substance “HoxA11-V5/His fusion protein (from UniProt P31270 1-313)”, the binding result is “binds”.

Values taken from PMC2731163.
